Here are results for 9 molecules from paper PMC4947123.

By UniProt entry, the sequences of proteins in these tests, tags left out. Where a name states a change or a piece, a line headed by the entry shows the natural chain unless it says otherwise.
UniProt Q9UHD9: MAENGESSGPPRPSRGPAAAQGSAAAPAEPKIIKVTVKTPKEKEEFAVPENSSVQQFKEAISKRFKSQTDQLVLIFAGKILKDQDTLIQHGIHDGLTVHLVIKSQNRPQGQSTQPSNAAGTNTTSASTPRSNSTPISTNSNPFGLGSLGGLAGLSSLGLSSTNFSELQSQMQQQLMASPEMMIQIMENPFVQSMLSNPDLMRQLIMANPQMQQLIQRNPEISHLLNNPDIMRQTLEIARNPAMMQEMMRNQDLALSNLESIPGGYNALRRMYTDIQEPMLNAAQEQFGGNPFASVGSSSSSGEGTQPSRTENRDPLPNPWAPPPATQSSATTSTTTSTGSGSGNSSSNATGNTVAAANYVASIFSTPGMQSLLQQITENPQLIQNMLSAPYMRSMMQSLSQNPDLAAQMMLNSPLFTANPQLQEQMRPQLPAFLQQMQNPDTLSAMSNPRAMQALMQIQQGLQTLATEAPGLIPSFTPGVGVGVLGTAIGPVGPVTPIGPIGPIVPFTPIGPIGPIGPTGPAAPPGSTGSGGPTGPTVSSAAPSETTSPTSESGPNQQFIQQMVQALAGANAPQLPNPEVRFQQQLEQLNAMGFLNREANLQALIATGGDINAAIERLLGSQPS
UniProt Q96CV9: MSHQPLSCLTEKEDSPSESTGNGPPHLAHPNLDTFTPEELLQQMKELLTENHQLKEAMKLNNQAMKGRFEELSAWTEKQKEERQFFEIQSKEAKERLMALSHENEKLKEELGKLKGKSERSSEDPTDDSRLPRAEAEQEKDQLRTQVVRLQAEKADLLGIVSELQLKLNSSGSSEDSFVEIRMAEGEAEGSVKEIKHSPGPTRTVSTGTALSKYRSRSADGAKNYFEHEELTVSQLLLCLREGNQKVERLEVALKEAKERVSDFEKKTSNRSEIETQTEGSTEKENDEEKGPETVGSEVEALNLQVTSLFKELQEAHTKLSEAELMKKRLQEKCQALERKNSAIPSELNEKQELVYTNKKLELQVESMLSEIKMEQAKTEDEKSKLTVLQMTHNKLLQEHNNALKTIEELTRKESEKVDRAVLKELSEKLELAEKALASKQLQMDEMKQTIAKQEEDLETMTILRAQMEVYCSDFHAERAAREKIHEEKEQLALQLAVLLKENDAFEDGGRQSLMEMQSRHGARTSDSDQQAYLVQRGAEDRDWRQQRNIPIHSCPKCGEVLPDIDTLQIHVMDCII
UniProt Q96LT7: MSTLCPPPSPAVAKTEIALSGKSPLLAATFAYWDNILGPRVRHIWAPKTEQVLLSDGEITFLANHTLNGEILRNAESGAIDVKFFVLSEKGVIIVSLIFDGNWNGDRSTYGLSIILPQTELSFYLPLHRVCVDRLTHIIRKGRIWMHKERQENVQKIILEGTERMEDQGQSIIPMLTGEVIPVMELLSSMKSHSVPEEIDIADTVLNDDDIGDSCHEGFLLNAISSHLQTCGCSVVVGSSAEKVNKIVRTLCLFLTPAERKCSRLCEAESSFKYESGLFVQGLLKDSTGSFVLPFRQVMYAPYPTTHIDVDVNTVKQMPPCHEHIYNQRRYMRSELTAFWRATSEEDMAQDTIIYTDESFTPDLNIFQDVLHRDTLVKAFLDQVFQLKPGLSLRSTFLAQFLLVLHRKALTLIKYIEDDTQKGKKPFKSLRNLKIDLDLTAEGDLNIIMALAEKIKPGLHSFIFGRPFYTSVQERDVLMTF

These are yes or no findings as the source states them, for the method shown. Binding seen in cells or lysates may run through a third protein. Here binding means that the protein was enriched with, or labelled near, the bait; the list need not be complete. For some of these results: A no says only that the protein was not detected with the bait.

Holding throughout (test): affinity purification with mass spectrometry; bioGFP-tagged bait co-transfected with BirA in N2A cells; captured from lysate with magnetic streptavidin beads; gel, LC-MS/MS, MaxQuant, PERSEUS, Welch's t test with FDR 0.01 and S0 1.5, triplicate, against GFP or wild type
Assay [1] addresses bioGFP-tagged UBQLN2 wild-type (UniProt Q9UHD9).
The target in the next assay is bioGFP-tagged OPTN E478G (UniProt Q96CV9).
Assay [2] has as its target bioGFP-tagged OPTN wild-type (UniProt Q96CV9).
The next assay deals with bioGFP-tagged C9orf72 (UniProt Q96LT7).

B1: Huntingtin-associated protein 1 (Hap1) (protein, UniProt O35668 1-628)
chain: MRPKEQVQSGAGDGTGSGDPAAGTPTTQPAVGPAPEPSAEPKPAPAQGTGSGQKSGSRTKTGSFCRSMIIGDSDAPWTRYVFQGPYGPRATGLGTGKAEGIWKTPAAYIGRRPGVSGPERAAFIRELQEALCPNPPPTKKITEDDVKVMLYLLEEKERDLNTAARIGQSLVKQNSVLMEENNKLETMLGSAREEILHLRKQVNLRDDLLQLYSDSDDDDDEEDEEDEEEGEEEEREGQRDQDQQHDHPYGAPKPHPKAETAHRCPQLETLQQKLRLLEEENDHLREEASHLDNLEDEEQMLILECVEQFSEASQQMAELSEVLVLRLEGYERQQKEITQLQAEITKLQQRCQSYGAQTEKLQQMLASEKGIHSESLRAGSYMQDYGSRPRDRQEDGKSHRQRSSMPAGSVTHYGYSVPLDALPSFPETLAEELRTSLRKFITDPAYFMERRDTHCREGRKKEQRAMPPPPAQDLKPPEDFEAPEELVPEEELGAIEEVGTAEDGQAEENEQASEETEAWEEVEPEVDETTRMNVVVSALEASGLGPSHLDMKYVLQQLSNWQDAHSKRQQKQKVVPKDSPTPQQQTNMGGGILEQQPRVPTQDSQRLEEDRATHSPSAREEEGPSGAT
With B1, in assay [1], the binding entry is on record as “binds”.

B2: ATPase WRNIP1 (Wrnip1) (protein, UniProt Q91XU0 1-660)
chain: MEVSGPEDDPFLSQLHQVQCPVCQQMMPAAHINSHLDRCLLLHPAGHAEPAAGSHRAGERAKGPSPPGAKRRRLSESSALKQPATPTAAESSEGEGEEGDDGGETESRESYDAPPTPSGARLIPDFPVARSSSPARKGMGKRPAAAAAAGSASPRSWDEAEAQEEEEAGVDGDGDADVDGEDDPGHWDADAADASFGVSAGRAHPRALAAEEIRQMLEGKPLADKMRPDTLQDYIGQSRAVGQETLLRSLLEANEIPSLILWGPPGCGKTTLAHIIANNSKKHSIRFVTLSATNAKTNDVRDVIKQAQNEKSFFKRKTILFIDEIHRFNKSQQDTFLPHVECGTITLIGATTENPSFQVNAALLSRCRVIVLEKLPVEAMVTILMRAINSLGIHVLDSSRPTDPLSHSSNCSSEPSVFIEDKAVDTLAYLSDGDARTGLNGLQLAVLARLSSRKVFCKKSGQTYSPSRVLITENDVKEGLQRSHILYDRAGEEHYNCISALHKAMRGSDQNASLYWLARMLEGGEDPLYVARRLVRFASEDIGLADPSALAQAVAAYQGCHFIGMPECEVLLAQCVVYFARAPKSIEVYSAYNNVKACLRSHQGPLPPVPLHLRNAPTRLMKDLGYGKGYKYNPMYSEPVDQDYLPEELRGVDFFKQRRC
As to B2, the values for the binding result (with bioGFP-tagged OPTN E478G; in assay [2]) were “no binding” and “binds”, respectively.

B3: Dolichyl-diphospho-oligosaccharideprotein glycosyltransferase subunit 1 (Rpn1) (protein, UniProt Q91YQ5 26-608)
chain: SSEAPPLVNEDVKRTVDLSSHLAKVTAEVVLVHPGGGSTSRASSFVLALEPELESRLAHLGVQIKGEDEEDNNLEVRETKIKGKSGRFFTVKLPVALDPGSKISVVVETVYTHVLHPYPTQITQSEKQFVVFEGNHYFYSPYPTKTQTMRVKLASRNVESYTKLGNPSRSEDVLDYGPFKDIPAYSQDTFKVHYENNSPFLTITSMTRVIEVSHWGNIAVEENVDLKHTGAVLKGPFSRYDYQRQPDSGISSIRSFKTILPAAAQDVYYRDEIGNVSTSHLLILDDSVEMEIRPRFPLFGGWKTHYIVGYNLPSYEYLYNLGDQYALKMRFVDHVFDEQVIDSLTVKIILPEGAKNIQVDSPYDISRAPDELHYTYLDTFGRPVIVAYKKNLVEQHIQDIVVHYTFNKVLMLQEPLLVVAAFYILFFTVIIYVRLDFSITKDPAAEARMKVACITEQVLTLVNKRLGLYRHFDETVNRYKQSRDISTLNSGKKSLETEHKAVTSEIAVLQSRLKTEGSDLCDRVSEMQKLDAQVKELVLKSAVEAERLVAGKLKKDTYLENEKLSSGKRQELVTKIDHILDAL
On to B3, for which the binding entry with bioGFP-tagged OPTN E478G was “no binding”; in assay [2] it was “binds”.

B4: Slc25a4 (protein, UniProt P48962 1-298)
chain: MGDQALSFLKDFLAGGIAAAVSKTAVAPIERVKLLLQVQHASKQISAEKQYKGIIDCVVRIPKEQGFLSFWRGNLANVIRYFPTQALNFAFKDKYKQIFLGGVDRHKQFWRYFAGNLASGGAAGATSLCFVYPLDFARTRLAADVGKGSSQREFNGLGDCLTKIFKSDGLKGLYQGFSVSVQGIIIYRAAYFGVYDTAKGMLPDPKNVHIIVSWMIAQSVTAVAGLVSYPFDTVRRRMMMQSGRKGADIMYTGTLDCWRKIAKDEGANAFFKGAWSNVLRGMGGAFVLVLYDEIKKYV
Consider B4, for which the binding entry with bioGFP-tagged C9orf72 is “binds”.

B5: Slc25a5 (protein, UniProt P51881 1-298)
chain: MTDAAVSFAKDFLAGGVAAAISKTAVAPIERVKLLLQVQHASKQITADKQYKGIIDCVVRIPKEQGVLSFWRGNLANVIRYFPTQALNFAFKDKYKQIFLGGVDKRTQFWRYFAGNLASGGAAGATSLCFVYPLDFARTRLAADVGKAGAEREFKGLGDCLVKIYKSDGIKGLYQGFNVSVQGIIIYRAAYFGIYDTAKGMLPDPKNTHIFISWMIAQSVTAVAGLTSYPFDTVRRRMMMQSGRKGTDIMYTGTLDCWRKIARDEGSKAFFKGAWSNVLRGMGGAFVLVLYDEIKKYT
For the molecule B5, the binding result with bioGFP-tagged C9orf72 is on record as “binds”.

B6: TBC1 domain family member 15 (Tbc1d15) (protein, UniProt Q9CXF4 1-671)
chain: MAAAGVVSGKIIYEQEGVYIHSSCGKANDQDSLISGILRVLEKDAEVIVDWRPLDDALDSSSILCAGKDSSSVVEWTQAPKERAHRGSDQQSSYEAEWDMVTTVSFKKKPHTNGDAPGHRNGKSKWSFLFSLADLKSVKQSKEGMGWSYLVFCLKDDVMLPALHFHQGDSKLLIESLEKYVVLCESPQDSRTLLVNCQNKSLSQSFENLLDEPAYGLIQKIKKDPYTATMVGFSKVTNYIFDSLRGSDPSTHQRPPSEMADFLSDAIPGLKINQQEEPGFEVITRIDLGERPVVQRREPVSLEEWNKSLDPEGRLVAVESMKQKIFRGGLSHSLRKQAWKFLLGYFPWDSTKEERTQLQKQKTDEYFRMKLQWKSVSEAQEKRNSRLRDYRSLIEKDVNRTDRTNKFYEGQDNPGLILLHDILMTYCMYDFDLGYVQGMSDLLSPLLYVMENEVDAFWCFASYMDQMHQNFEEQMQGMKTQLIQLSTLLRLLDSGFCSYLESQDSGYLYFCFRWLLIRFKREFSFLDILRLWEVMWTELPCKNFHLLLCCAILESEKQQIMAKHYGFNEILKHINELSMKIDVEDILCKAEAISLQMAQCKELPQAVCEILGLQDSEITTPDSDTDENVGSPCPVSAFPSSTLPILAASEAKDDSPTQTLASPNACRLTPA
As to B6, the binding result with bioGFP-tagged OPTN E478G is reported as “no binding”; in assay [1], “binds”; in assay [2], “binds”.

B7: solute carrier family (Slc)25a3 (protein, UniProt Q8VEM8 46-357)
chain: AVEEYSCEFGSMKYYALCGFGGVLSCGLTHTAVVPLDLVKCRMQVDPQKYKGIFNGFSITLKEDGVRGLAKGWAPTLIGYSMQGLCKFGFYEVFKALYSNILGEENTYLWRTSLYLASSASAEFFADIALAPMEAAKVRIQTQPGYANTLREAVPKMYKEEGLNAFYKGVAPLWMRQIPYTMMKFACFERTVEALYKFVVPKPRSECTKAEQLVVTFVAGYIAGVFCAIVSHPADSVVSVLNKEKGSTASQVLQRLGFRGVWKGLFARIIMIGTLTALQWFIYDSVKVYFRLPRPPPPEMPESLKKKLGLTE
For the molecule B7, in the assay with bioGFP-tagged C9orf72, the binding result is reported as “binds”.

B8: Ataxin-10 (Atxn10) (protein, UniProt P28658 1-475)
chain: MAAPRMPPSRLSGIMVPAPIQDLEALRALTALFKEQRNRETAPRTIFQRVLDILKKSTHAVELACRDPSQVEHLASSLQLITECFRCLRNACIECSVNQNSIRNLDTIGVAVDLVLLFRELRVEQDSLLTAFRCGLQFLGNVASRNEESQSIVWVHAFPELFMSCLNHPDKKIVAYCSMILFTSLNAERMKDLEENLNIAINVIEAHQKHPASEWPFLIISDHFLKSPELVEAMYGKLSNQERITLLDIVIAKLVGEEQLTKDDISIFVRHAELIANSFMDQCRNVLKLTSEPHTEDKEALVTIRLLDVLCEMTSNTELLGYLQVFPGLMERVIDVLRVIHEVGKESTNIFSPSDSLKAEGDIEHMTEGFKSHLIRLIGNLCYKNKENQDKVNELDGIPLILDSSNIDDNNPFMMQWVVYAVRNLTEDNSQNQDVIAKMEEQGLADASLLKKMGFEIEKSGDKLILKSNNDIPPP
As for B8, in assay [1], the binding result is recorded as “binds”.

B9: Slc16a1 (protein, UniProt P53986 1-493)
chain: MPPAIGGPVGYTPPDGGWGWAVLVGAFISIGFSYAFPKSITVFFKEIEVIFSATTSEVSWISSIMLAVMYAGGPISSILVNKYGSRPVMIAGGCLSGCGLIAASFCNTVQELYLCIGVIGGLGLAFNLNPALTMIGKYFYKKRPLANGLAMAGSPVFLSTLAPLNQAFFDIFDWRGSFLILGGLLLNCCVAGSLMRPIGPEQVKLEKLKSKESLQEAGKSDANTDLIGGSPKGEKLSVFQTINKFLDLSLFTHRGFLLYLSGNVVMFFGLFTPLVFLSSYGKSKDFSSEKSAFLLSILAFVDMVARPSMGLAANTKWIRPRIQYFFAASVVANGVCHLLAPLSTTYVGFCVYAGVFGFAFGWLSSVLFETLMDLIGPQRFSSAVGLVTIVECCPVLLGPPLLGRLNDMYGDYKYTYWACGVILIIAGIYLFIGMGINYRLLAKEQKAEEKQKREGKEDEASTDVDEKPKETMKAAQSPQQHSSGDPTEEESPV
With B9, the binding entry with bioGFP-tagged C9orf72 is “binds”.
